This passage reports binding results from PMC2894085.

Chains of the proteins cited; added tags and fusions are not shown.
UniProt O74803: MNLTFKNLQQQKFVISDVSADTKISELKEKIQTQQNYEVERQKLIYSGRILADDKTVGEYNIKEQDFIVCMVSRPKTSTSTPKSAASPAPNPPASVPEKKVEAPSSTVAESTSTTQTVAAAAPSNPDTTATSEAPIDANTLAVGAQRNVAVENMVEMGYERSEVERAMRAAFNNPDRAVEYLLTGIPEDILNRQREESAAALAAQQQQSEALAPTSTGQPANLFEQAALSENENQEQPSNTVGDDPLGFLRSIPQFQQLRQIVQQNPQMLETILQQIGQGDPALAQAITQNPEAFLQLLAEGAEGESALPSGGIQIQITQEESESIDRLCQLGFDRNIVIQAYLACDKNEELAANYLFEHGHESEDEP
UniProt P12520: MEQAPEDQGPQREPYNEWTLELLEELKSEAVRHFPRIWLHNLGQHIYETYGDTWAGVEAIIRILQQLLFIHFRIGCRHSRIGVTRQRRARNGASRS

Results are given in words; binding and its absence hold for the method and conditions named. Binding seen in cells or lysates may run through a third protein. Some binding calls cover weakened binding; strength is not graded here.

In test [1] the target is HA-tagged Rhp23 expressed in fission yeast (fission yeast (Schizosaccharomyces pombe)) (UniProt O74803). Description: co-IP; fission yeast lysates, anti-HA antibody overnight at 4°C, protein A-agarose beads, washed with PBS; blots with anti-Mts2 or anti-Mts4; HA-Rhp23 with or without vpr expression.
In test [2] the target is Vpr expressed in fission yeast cells (glycerol gradient) (HIV-1) (UniProt P12520). Description: co-sedimentation; extracts of fission yeast cells expressing vpr, centrifugation on a 10-40% glycerol gradient; fractions blotted with anti-Vpr and anti-Mts4.

B1: Mts4, subunit 2 (S2) of the 19S regulatory complex of the fission yeast 26S proteasome (protein, UniProt P87048 1-891)
chain: MSSKDISSKSPSGNDALNDKKGTKTSETNDRNSTNNTKERDELEDLSEEDLQLKNDLELLVQAVQDATPELVGSSLTQLKEIIRTSTSSMTAVPKPLKFLRPHYFTLVKIYDSWPQSPQKTQLADILSVLGMSYSNTSKHESLKYRLQGVTTDPSLWGHEYVRHLASEIEEEFASRQEEEAPTDDLMELALTIVPFFLTHNAEADAIDLLQELGAIEKVVPFVELDNASRVCLYITSCVNLLPFPEDVAMLRTAHAIYRKFDQLTQALNVAIRLDDMSLIKEDCEAATDPLLKKQMSYMLARQQIPMDMGDEELNDALNNTHLSDHFHYLGKELNLMDPKVPEDIFKTHLEVARTGLGASGVYSAKQNLANTFVNALVNAGYSNDRLILVDDEKTSWIYKNKESGLISATASIGLLQLWNVDMGLSLLDKYLYSSEENTKAGALLGIGVTNVAVRNEADPAMAILSEYLETGSVKLRASAILGLGLAYSGANREDLLDMLSPIVTDTDCPMQLSCLAALSLGLIFVGTCNGDVASTILQTLMEREESAQNDQWGRFMALGLALLFNGKQDLADATVETLKAIEGKIARQAEILVDICSYAGTGNVLHIQKLLHICSEPPSDDAKESETTIQTFAALGVATIAMGEDIGAEMVLRHFDHMMHYGEPSIRKAIPLALGLLSASNPQMRIFDTLSRYSHDNDLDVAYNAIFAMGLVGAGTSNARLAQLLRQLASYYHKESNALFMVRIAQGLLYLGKGTMTLNPYHTERQILGQTAFAGLMTVVLAMLDANTFVLDTSHWLLYAITLAIRPRMLITLGEDGQYLPVSVRVGQAVDVVGQAGRPKVITGWVTHTTPVLLHHNERAELATEAYTPLTSLEGIVILKKNTEDIEMTA
B1: the binding result in test [1] and in test [2] was “binds” in each case.
